At least one compound was matched to its structure with a doubt left.
Test system: human carcinoma cell lines DU-145, MCF-7, H157, DLD-1
Test: Antitumor assay, viable cell count by Trypan blue exclusion
Format: cell-based
Conditions: 2.5 μM, 96 hours, viable cells of treated vs untreated controls

Structure (SMILES): O=S(=O)(/C=C/c1ccc(Cl)cc1)Cc1ccc(Cl)cc1 [Example 8, (E)-4-chlorostyryl-4-chlorobenzyl sulfone]
- Antitumor: +

Reference: patent US6656973B2, “(E)-4-carboxystyrl-4-chlorobenzyl sulfone and pharmaceutical compositions thereof” (Temple University - Of the Commonwealth System of Higher …, priority 1999, dated 2003)
